Measured values reported in paper PMC10394331.
Results are given in words; binding and its absence hold for the method and conditions named. Binding seen in cells or lysates may run through a third protein. Binding can be weak; no strength is given. Blank lines part the entries; values can stand above or below the binder they belong to.

Biological target: FLAG-TRIM38 (tripartite motif 38)
Assay: co-IP; semiendogenous IP in primary mouse hepatocytes transfected with FLAG-TRIM38 under PA-induced metabolic stress; IP lysis buffer 20 mM Tris-HCl pH 7.4, 150 mM NaCl, 1 mM EDTA, 1% NP-40; antitag antibodies and protein G agarose beads overnight at 4°C; Western blot

binding: binds
B1: transforming growth factor-β-activated kinase 1 binding protein 2 (protein, UniProt Q99K90 1-693)
chain: MAQGSHQIDFQVLHDLRQKFPEVPEVVVSRCMLQNNNNLDACCAVLSQESTRYLYGEGDLNFSDESGISGLRNHMTSLNLDLQSQNVYHHGREGSRVNGSRTLTHSVSDGQLHGGQSNNELFQQEPQTAPAQVPQGFNVFGMPSTSGASNSTPHLGFHLGSKGTSNLSQQTPRFNPIMVTLAPNIQTGRSTPTSLHIHGVPPPVLNSPQGNSIYIRPYITTPSGTARQTQQHSGWVSQFNPMNPQQAYQPSQPGPWTTYPASNPLPHTSTQQPNQQGHQTSHVYMPISSPTTPQPPTIHSSGSSQSSAHSQYNIQNISTGPRKNQIEIKLEPPQRNSSSKLRSSGPRTASTSSLVNSQTLNRNQPTVYIAASPPNTDEMISRSQPKVYISANATAGDEQGMRNQPTLFISTNSGPSAASRNMSGQVSMGPAFIHHHPPKSRVLGGNSATSPRVVVTQPNTKYTFKITVSPNKPPAVSPGVVSPTFELTNLLNHPDHYVETENIQHLTDPALAHVDRISEARKLSMGSDDAAYTQALLVHQKARMERLQRELEMQKKKLDKLKSEVNEMENNLTRRRLKRSNSISQIPSLEEMQQLRSCNRQLQIDIDCLTKEIDLFQARGPHFNPSAIHNFYDNIGFVGPVPPKPKDQRSTIKAPKTQDAEDEEGAQWNCTACTFLNHPALIRCEQCEMPRHF

binding: binds
B2: transforming growth factor beta-activated kinase 1 (protein, UniProt Q62073 1-579)
chain: MSTASAASSSSSSSASEMIEAPSQVLNFEEIDYKEIEVEEVVGRGAFGVVCKAKWRAKDVAIKQIESESERKAFIVELRQLSRVNHPNIVKLYGACLNPVCLVMEYAEGGSLYNVLHGAEPLPYYTAAHAMSWCLQCSQGVAYLHSMQPKALIHRDLKPPNLLLVAGGTVLKICDFGTACDIQTHMTNNKGSAAWMAPEVFEGSNYSEKCDVFSWGIILWEVITRRKPFDEIGGPAFRIMWAVHNGTRPPLIKNLPKPIESLMTRCWSKDPSQRPSMEEIVKIMTHLMRYFPGADEPLQYPCQYSDEGQSNSATSTGSFMDIASTNTSNKSDTNMEQVPATNDTIKRLESKLLKNQAKQQSESGRLSLGASRGSSVESLPPTSEGKRMSADMSEIEARIVATAGNGQPRRRSIQDLTVTGTEPGQVSSRSSSPSVRMITTSGPTSEKPARSHPWTPDDSTDTNGSDNSIPMAYLTLDHQLQPLAPCPNSKESMAVFEQHCKMAQEYMKVQTEIALLLQRKQELVAELDQDEKDQQNTSRLVQEHKKLLDENKSLSTYYQQCKKQLEVIRSQQQKRQGTS
